Reference: PubChem BioAssay AID504791 (Drosophila RNAi Screening Center, 2011)
The deposit covers about 23,000 reagents; below is an unselected part of those with a known target gene and a result. Over the whole deposit, 199 (0.86%) were called active. 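Plate-scaled ratios behind the calls are not deposited; printed light signals are raw; many rows marked increased or decreased are still called inactive.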 Names joined by + are all predicted targets of the reagent.

Purpose: 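Factors in Argonaute-based small RNA production and activity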 (primary screen)
System: Drosophila S2-derived reporter cells
Reagent: long dsRNA against Drosophila genes, about 150-250 ng dsRNA per well (siRNA assay); about 80-120 ng (miRNA assay)
Timing: about 5 days (siRNA assay); about 4 days (miRNA assay)
Treatment: copper sulfate induction of reporters: 25 µM (siRNA assay); 200 mM stated (miRNA assay), 1-2 days before reading
Detection: 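Per-well ratio of Renilla over firefly light, expressed relative to that plate's average ratio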
Reading the numbers: siRNA reporter hit score: higher = 3 marks a strong hit with raised ratio; -3 a strong hit with lowered ratio
Active means: 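First-pass picks had plate-scaled ratios over 1.5 for the siRNA assay, over 1.6 for the miRNA assay, or under 0.6; two distinct dsRNAs had to score alike on retest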

| Target gene | PubChem SID | siRNA reporter hit score | stable siRNA reporter change | miRNA reporter change | stable assay Renilla, run 1 (luminescence) | stable assay firefly, run 1 (luminescence) | call |
| --- | --- | --- | --- | --- | --- | --- | --- |
| Cyp317a1 | SID104187158 | – | – | – | 5655 | 3.20e5 | inactive |
| Kaz1-ORFB + Kaz1-ORFA | SID104188461 | – | – | – | 6519 | 4.21e5 | inactive |
| Sema1a | SID104183225 | – | – | – | 5858 | 4.35e5 | inactive |
| CG3355 | SID104180390 | – | – | – | 7268 | 3.40e5 | inactive |
| fwd | SID104188372 | – | – | – | 8612 | 2.59e5 | inactive |
| CG34200 | SID104184596 | – | – | – | 5187 | 4.90e5 | inactive |
| hrm | SID104184645 | – | – | – | 6683 | 4.60e5 | inactive |
| CG13127 | SID104182015 | – | – | – | 7751 | 4.20e5 | inactive |
| sut1 | SID104187492 | – | – | – | 7640 | 4.05e5 | inactive |
| CG14907 + Mettl4 | SID104194818 | – | – | – | 6822 | 3.86e5 | inactive |
| CG14907 + Mettl4 | SID104194819 | – | – | – | 7856 | 3.41e5 | inactive |
| gw | SID104196927 | – | – | reporter ratio lowered past the hit cutoff | 4607 | 2.29e5 | active |
| gw | SID104196952 | – | – | – | 3776 | 1.67e5 | inactive |
| Tab2 | SID104187273 | – | – | – | 6534 | 3.04e5 | inactive |
| Argl + CG9515 | SID104183035 | – | – | – | 19678 | 6.63e5 | inactive |
| Argl + CG9515 | SID104183037 | – | – | – | 6866 | 3.73e5 | inactive |
| CG42383 | SID104201404 | – | – | – | 7758 | 4.00e5 | inactive |
| CG4712 | SID104186674 | – | – | – | 5771 | 3.57e5 | inactive |
| CG9961 | SID104180530 | – | – | – | 7395 | 3.84e5 | inactive |
| CG9961 | SID104202700 | – | – | – | 4144 | 3.34e5 | inactive |
| CG32806 | SID104201378 | – | – | – | 9070 | 3.96e5 | inactive |
| CG34323 | SID104198708 | – | – | – | 4799 | 4.05e5 | inactive |
| RpS13 | SID104183211 | – | – | reporter ratio lowered past the hit cutoff | 10862 | 6.79e5 | active |
| CrzR | SID104189573 | – | – | – | 6411 | 3.87e5 | inactive |
| CrzR | SID104189574 | – | – | – | 6498 | 4.12e5 | inactive |
| Qsox2 | SID104195079 | – | – | – | 9643 | 5.02e5 | inactive |
| CG3955 | SID104186651 | – | – | – | 8238 | 5.59e5 | inactive |
| snRNA:U1:95Cc + snRNA:U1:95Cb | SID104193433 | – | – | – | 3872 | 3.86e5 | inactive |
| RpL15 | SID104200755 | – | – | – | 7427 | 3.96e5 | inactive |
| CG5404 | SID104195585 | – | – | – | 4055 | 4.75e5 | inactive |
| lok | SID104183359 | – | – | – | 10438 | 1.95e6 | inactive |
| Awh | SID104187932 | – | – | – | 6447 | 4.62e5 | inactive |
| CG32647 | SID104199482 | – | – | – | 5407 | 5.09e5 | inactive |
| CG32647 | SID104199670 | – | – | – | 5416 | 5.30e5 | inactive |
| Vps53 | SID104180387 | – | – | – | 14670 | 6.78e5 | inactive |
| Polr2A | SID104200072 | – | – | – | 4200 | 1.60e5 | inactive |
| mol | SID104181223 | – | reporter ratio raised past the hit cutoff | – | 3515 | 1.14e5 | inactive |
| mol | SID104181704 | – | – | – | 5958 | 1.39e6 | inactive |
| mol | SID104182271 | – | – | – | 6942 | 4.26e5 | inactive |
| ATPsynC | SID104195028 | – | – | – | 6916 | 4.45e5 | inactive |
| alpha-Est2 | SID104192406 | – | – | – | 7098 | 4.24e5 | inactive |
| Pss | SID104191549 | – | – | – | 6754 | 4.47e5 | inactive |
| CG17681 | SID104182424 | – | – | – | 6903 | 3.89e5 | inactive |
| CG12126 | SID104185895 | – | – | – | 8115 | 6.53e5 | inactive |
| Marf | SID104198121 | – | – | – | 6559 | 4.21e5 | inactive |
| Marf | SID104206645 | – | – | reporter ratio lowered past the hit cutoff | – | – | inactive |
| ems | SID104196733 | – | – | – | 7406 | 3.67e5 | inactive |
| CG18404 | SID104195115 | – | – | – | 6120 | 3.84e5 | inactive |
| BobA | SID104189681 | – | – | – | 6439 | 3.47e5 | inactive |
| CG14370 | SID104194624 | – | – | – | 6546 | 4.09e5 | inactive |
| CG7914 | SID104199860 | – | – | – | 5339 | 3.89e5 | inactive |
| bisc | SID104183875 | – | – | – | 31709 | 7.89e5 | inactive |
| tor | SID104187499 | – | – | – | 6350 | 3.47e5 | inactive |
| CG34006 (retired record) | SID104193609 | – | – | – | 7695 | 6.14e5 | inactive |
| CG34223 | SID104185060 | – | – | – | 5719 | 4.10e5 | inactive |
| CG4707 | SID104184275 | – | – | – | 24813 | 1.18e6 | inactive |
| Cbp80 | SID104198242 | -3 | reporter ratio raised past the hit cutoff | reporter ratio raised past the hit cutoff | 31008 | 4.91e5 | active |
| euc | SID104194284 | – | – | – | 7823 | 4.42e5 | inactive |
| CG32024 | SID104201514 | – | – | – | 9049 | 5.50e5 | inactive |
| Vps16A | SID104196214 | – | – | – | 6455 | 4.42e5 | inactive |
| CG32488 | SID104188341 | – | – | – | 6155 | 4.37e5 | inactive |
| CG32488 | SID104201254 | – | – | – | 9746 | 5.94e5 | inactive |
| slow | SID104188381 | – | – | – | 7614 | 4.12e5 | inactive |
| slow | SID104188382 | – | – | – | 5235 | 4.36e5 | inactive |
| CG15021 | SID104188267 | – | – | – | 4480 | 3.95e5 | inactive |
| LTV1 | SID104185743 | – | – | – | 7520 | 3.75e5 | inactive |
| Ir56c | SID104186336 | – | – | – | 6000 | 3.58e5 | inactive |
| CG10257 | SID104185777 | – | – | – | 6735 | 3.51e5 | inactive |
| mex1 | SID104191160 | – | – | – | 7262 | 5.50e5 | inactive |
| CG13872 | SID104186223 | – | – | – | 6451 | 3.14e5 | inactive |
| CG9541 | SID104183049 | – | – | – | 6751 | 3.20e5 | inactive |
| CG7655 | SID104196067 | – | – | – | 9313 | 3.72e5 | inactive |
| Ciz1 | SID104189467 | – | reporter ratio lowered past the hit cutoff | reporter ratio lowered past the hit cutoff | 3583 | 3.65e5 | active |
| Ciz1 | SID104203611 | – | – | reporter ratio lowered past the hit cutoff | – | – | active |
| CG12289 | SID104189666 | – | – | – | 6171 | 3.52e5 | inactive |
| CG32829 | SID104180753 | – | – | – | 4723 | 4.87e5 | inactive |
| CG32829 | SID104202164 | – | – | – | 2799 | 2.88e5 | inactive |
| scyl | SID104191184 | – | – | – | 4139 | 2.34e5 | inactive |
| Cpes | SID104184267 | – | – | – | 18133 | 9.48e5 | inactive |
| ssp6 | SID104188583 | – | – | – | 4943 | 3.87e5 | inactive |
| ssp6 | SID104190469 | – | – | – | 6447 | 3.55e5 | inactive |
| mamo | SID104199162 | – | – | – | 5999 | 4.59e5 | inactive |
| CG10089 | SID104189486 | – | – | – | 6288 | 3.95e5 | inactive |
| CG10089 | SID104189487 | – | – | – | 7571 | 4.76e5 | inactive |

6 of these entries, set out differently:
{"Target gene":"CG34200","PubChem SID":"SID104184596","stable assay Renilla, run 1 (luminescence)":5187,"stable assay firefly, run 1 (luminescence)":4.90e5,"call":"inactive"}
{"Target gene":"hrm","PubChem SID":"SID104184645","stable assay Renilla, run 1 (luminescence)":6683,"stable assay firefly, run 1 (luminescence)":4.60e5,"call":"inactive"}
{"Target gene":"CG13127","PubChem SID":"SID104182015","stable assay Renilla, run 1 (luminescence)":7751,"stable assay firefly, run 1 (luminescence)":4.20e5,"call":"inactive"}
{"Target gene":"sut1","PubChem SID":"SID104187492","stable assay Renilla, run 1 (luminescence)":7640,"stable assay firefly, run 1 (luminescence)":4.05e5,"call":"inactive"}
{"Target gene":"CG14907 + Mettl4","PubChem SID":"SID104194818","stable assay Renilla, run 1 (luminescence)":6822,"stable assay firefly, run 1 (luminescence)":3.86e5,"call":"inactive"}
{"Target gene":"CG14907 + Mettl4","PubChem SID":"SID104194819","stable assay Renilla, run 1 (luminescence)":7856,"stable assay firefly, run 1 (luminescence)":3.41e5,"call":"inactive"}
